These are yes or no findings as the source states them, for the method shown. In cells and extracts the contact can be indirect. These calls come from enrichment with a bait or labelling near it, and not all partners need be listed.
The molecules below were run against VIM-APEX2-GFP (UniProt P08670) (assay: proximity labelling).

Amino acid sequences for entries named in this document (tags omitted). Residues count along the entry.
UniProt P50995: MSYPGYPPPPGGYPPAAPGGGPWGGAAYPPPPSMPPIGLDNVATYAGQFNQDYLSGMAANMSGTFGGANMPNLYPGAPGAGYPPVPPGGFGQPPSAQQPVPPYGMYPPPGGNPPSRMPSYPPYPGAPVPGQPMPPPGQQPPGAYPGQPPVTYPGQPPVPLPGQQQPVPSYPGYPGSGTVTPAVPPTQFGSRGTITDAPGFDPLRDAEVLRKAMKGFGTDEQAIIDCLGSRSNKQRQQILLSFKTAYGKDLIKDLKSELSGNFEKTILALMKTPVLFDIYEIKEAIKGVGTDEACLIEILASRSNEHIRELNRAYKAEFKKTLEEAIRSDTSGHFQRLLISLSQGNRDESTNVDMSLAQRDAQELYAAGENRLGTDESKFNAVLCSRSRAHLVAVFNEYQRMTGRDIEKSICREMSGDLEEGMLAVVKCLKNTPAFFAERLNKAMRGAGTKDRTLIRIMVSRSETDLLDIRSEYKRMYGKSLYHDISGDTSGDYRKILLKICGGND
UniProt Q14240: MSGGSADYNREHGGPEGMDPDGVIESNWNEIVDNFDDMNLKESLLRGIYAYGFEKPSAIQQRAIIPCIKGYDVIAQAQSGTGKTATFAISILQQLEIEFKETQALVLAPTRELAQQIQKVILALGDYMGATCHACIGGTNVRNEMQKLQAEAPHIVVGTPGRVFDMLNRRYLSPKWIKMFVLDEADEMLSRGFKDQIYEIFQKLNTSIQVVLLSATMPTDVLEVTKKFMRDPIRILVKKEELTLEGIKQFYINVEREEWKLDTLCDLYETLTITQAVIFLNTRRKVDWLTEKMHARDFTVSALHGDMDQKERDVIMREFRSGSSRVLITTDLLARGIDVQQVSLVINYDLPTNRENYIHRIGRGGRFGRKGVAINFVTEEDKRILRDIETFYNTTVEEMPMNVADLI
UniProt P05161, residues 1-157: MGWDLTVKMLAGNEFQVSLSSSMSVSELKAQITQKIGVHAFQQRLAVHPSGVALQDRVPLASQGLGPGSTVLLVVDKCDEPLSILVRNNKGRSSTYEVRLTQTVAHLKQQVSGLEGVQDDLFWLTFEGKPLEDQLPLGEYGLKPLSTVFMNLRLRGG
UniProt O00151: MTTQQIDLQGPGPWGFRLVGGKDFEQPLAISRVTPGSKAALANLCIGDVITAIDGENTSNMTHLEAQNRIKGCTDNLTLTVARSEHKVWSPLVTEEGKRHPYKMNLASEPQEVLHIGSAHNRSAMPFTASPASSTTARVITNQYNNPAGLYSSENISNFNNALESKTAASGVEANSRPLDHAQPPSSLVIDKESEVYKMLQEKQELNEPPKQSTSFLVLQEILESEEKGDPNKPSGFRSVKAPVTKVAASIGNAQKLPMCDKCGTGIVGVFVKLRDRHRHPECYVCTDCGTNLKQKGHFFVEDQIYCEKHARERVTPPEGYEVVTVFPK
UniProt Q9UMY4: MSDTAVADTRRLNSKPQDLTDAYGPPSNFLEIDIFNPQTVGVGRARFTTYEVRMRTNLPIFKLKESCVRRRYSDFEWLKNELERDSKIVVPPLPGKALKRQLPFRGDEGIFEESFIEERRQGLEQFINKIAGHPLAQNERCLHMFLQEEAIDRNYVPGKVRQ
UniProt P29992: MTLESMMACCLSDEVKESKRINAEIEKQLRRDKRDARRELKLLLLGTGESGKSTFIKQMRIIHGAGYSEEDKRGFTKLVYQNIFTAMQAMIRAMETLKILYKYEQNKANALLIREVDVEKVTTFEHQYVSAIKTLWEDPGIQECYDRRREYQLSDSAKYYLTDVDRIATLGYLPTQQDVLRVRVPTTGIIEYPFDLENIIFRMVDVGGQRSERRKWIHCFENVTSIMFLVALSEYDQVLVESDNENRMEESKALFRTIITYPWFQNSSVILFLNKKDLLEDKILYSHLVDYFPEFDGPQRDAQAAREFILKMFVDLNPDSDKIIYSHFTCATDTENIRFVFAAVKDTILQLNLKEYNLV
UniProt Q15631: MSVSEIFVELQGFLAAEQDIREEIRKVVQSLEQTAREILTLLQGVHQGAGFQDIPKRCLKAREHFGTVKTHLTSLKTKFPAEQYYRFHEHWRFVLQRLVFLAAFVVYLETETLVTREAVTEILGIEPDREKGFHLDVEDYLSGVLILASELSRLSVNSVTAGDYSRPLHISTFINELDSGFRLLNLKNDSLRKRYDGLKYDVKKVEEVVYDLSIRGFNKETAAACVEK
UniProt O75131: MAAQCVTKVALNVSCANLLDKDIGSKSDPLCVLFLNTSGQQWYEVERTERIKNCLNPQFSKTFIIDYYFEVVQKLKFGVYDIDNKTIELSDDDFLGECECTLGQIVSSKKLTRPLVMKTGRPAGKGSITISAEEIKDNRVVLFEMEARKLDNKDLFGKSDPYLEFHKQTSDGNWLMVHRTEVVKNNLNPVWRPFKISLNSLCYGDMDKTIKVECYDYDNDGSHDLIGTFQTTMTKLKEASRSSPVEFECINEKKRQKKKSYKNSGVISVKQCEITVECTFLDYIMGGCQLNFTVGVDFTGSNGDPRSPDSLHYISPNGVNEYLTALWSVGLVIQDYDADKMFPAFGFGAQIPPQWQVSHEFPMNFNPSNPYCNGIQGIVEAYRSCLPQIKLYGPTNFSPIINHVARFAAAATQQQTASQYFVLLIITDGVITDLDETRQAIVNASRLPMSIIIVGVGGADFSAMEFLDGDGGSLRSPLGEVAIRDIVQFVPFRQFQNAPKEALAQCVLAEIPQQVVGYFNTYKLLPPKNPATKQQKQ
UniProt P35637: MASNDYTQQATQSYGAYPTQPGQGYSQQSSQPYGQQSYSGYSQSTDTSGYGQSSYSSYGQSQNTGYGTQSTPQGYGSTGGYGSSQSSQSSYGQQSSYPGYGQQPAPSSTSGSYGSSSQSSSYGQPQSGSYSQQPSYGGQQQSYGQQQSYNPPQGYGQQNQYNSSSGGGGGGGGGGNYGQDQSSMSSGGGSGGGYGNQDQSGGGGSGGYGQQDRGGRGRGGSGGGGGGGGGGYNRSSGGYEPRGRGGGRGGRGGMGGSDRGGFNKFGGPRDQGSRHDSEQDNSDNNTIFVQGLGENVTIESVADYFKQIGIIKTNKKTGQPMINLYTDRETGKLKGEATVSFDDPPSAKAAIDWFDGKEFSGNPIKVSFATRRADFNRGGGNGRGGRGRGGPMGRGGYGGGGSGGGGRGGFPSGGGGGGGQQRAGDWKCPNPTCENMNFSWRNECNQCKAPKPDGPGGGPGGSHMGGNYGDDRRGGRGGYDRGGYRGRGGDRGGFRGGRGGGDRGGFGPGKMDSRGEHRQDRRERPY
UniProt Q9BQE3: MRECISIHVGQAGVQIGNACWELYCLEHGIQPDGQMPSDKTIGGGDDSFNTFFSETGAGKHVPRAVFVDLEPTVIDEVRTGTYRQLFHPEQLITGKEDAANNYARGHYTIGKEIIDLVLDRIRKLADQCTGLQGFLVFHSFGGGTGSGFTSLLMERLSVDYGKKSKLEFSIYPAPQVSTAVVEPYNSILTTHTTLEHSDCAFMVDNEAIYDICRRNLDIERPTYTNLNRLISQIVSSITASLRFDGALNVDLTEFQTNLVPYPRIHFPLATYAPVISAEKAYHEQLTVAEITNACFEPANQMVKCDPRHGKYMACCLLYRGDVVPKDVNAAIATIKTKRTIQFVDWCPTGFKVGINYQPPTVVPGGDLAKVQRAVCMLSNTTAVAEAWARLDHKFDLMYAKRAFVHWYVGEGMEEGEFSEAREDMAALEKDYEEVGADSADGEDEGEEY
UniProt P11413: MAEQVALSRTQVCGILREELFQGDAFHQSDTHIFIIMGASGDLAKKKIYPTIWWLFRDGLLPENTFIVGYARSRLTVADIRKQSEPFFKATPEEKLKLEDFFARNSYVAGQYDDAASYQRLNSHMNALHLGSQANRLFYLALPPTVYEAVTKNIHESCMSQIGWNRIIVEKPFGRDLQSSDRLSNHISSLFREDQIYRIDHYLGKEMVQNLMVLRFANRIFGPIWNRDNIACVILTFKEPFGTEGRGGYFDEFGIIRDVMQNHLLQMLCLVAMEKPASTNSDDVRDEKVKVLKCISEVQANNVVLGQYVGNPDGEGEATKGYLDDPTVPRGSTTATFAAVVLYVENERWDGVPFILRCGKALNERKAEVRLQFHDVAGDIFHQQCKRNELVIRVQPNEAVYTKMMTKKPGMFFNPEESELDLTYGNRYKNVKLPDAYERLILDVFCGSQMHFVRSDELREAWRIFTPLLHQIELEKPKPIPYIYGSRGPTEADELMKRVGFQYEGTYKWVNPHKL
UniProt P0DMV8: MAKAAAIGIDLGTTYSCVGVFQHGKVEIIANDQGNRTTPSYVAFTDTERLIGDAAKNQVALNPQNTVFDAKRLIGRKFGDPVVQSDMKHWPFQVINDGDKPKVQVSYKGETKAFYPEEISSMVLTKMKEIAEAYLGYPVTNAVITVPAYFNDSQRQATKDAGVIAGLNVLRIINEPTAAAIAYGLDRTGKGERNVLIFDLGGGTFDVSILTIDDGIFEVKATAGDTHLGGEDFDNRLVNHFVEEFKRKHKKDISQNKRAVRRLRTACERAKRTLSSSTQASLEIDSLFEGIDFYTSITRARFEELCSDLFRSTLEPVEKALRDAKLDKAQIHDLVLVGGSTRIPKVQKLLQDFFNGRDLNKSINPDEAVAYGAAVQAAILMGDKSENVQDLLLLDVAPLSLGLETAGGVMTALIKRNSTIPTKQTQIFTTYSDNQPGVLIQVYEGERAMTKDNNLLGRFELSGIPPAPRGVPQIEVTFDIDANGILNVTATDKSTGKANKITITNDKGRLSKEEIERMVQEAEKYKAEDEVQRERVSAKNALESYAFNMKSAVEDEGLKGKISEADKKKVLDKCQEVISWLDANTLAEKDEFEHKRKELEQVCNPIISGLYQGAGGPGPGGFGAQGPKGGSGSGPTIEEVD
UniProt Q15796: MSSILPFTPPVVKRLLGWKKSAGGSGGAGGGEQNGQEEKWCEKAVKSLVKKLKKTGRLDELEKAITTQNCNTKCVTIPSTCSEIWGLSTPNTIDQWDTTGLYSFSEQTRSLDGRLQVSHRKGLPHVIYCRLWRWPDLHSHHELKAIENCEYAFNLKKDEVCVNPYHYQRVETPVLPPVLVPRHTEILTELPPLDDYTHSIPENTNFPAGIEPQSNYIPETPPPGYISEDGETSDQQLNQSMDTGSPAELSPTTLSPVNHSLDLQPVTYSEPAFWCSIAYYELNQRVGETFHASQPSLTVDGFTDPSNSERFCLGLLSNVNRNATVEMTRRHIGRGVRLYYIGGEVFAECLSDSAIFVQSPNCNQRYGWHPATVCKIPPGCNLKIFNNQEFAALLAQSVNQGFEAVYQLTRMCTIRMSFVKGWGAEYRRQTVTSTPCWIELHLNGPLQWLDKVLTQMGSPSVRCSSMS
UniProt Q9UBN7: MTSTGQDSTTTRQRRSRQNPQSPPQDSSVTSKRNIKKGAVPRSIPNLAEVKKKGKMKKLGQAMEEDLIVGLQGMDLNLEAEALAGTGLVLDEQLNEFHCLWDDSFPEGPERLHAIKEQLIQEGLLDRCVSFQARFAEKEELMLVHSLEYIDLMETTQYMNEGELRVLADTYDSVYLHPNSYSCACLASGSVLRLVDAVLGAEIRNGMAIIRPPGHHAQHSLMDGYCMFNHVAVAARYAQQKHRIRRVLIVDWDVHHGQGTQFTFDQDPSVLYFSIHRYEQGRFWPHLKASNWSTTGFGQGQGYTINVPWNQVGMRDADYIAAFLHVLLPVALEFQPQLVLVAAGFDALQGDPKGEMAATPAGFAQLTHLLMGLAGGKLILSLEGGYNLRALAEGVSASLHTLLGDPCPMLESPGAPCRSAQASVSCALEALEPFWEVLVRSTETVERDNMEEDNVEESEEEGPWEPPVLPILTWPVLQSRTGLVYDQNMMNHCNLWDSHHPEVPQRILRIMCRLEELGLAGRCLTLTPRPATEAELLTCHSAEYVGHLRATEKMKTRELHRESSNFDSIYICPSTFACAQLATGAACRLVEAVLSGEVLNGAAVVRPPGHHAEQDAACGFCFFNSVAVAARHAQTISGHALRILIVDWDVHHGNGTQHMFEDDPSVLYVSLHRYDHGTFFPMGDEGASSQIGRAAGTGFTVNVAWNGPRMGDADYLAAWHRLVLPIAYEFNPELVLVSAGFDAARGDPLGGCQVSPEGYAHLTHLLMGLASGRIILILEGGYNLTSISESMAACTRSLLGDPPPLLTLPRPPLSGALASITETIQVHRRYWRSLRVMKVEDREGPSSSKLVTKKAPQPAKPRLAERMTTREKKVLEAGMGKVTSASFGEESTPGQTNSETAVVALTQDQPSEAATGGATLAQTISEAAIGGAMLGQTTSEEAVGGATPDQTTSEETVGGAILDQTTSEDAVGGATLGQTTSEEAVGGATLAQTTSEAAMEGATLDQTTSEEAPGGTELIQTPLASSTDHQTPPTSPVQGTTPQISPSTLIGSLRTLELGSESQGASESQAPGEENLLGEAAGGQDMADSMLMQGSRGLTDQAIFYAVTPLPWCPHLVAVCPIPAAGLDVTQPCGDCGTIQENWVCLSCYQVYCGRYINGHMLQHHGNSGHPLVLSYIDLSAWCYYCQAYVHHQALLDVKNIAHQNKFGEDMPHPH

| Molecule | binding |
| --- | --- |
| ANXA11 (from UniProt P50995 1-505) | binds |
| EIF4A2 (from UniProt Q14240 1-407) | binds |
| ISG15 (Interferon-Stimulated Gene 15) (from UniProt P05161 1-157) | binds |
| Hsp27 (from UniProt P04792 1-205) | binds |
| ABCD1 (from UniProt P33897 1-745) | binds |
| PDLIM1 (from UniProt O00151 1-329) | binds |
| DHFR (from UniProt P00374 1-187) | binds |
| BAG3 (from UniProt O95817 1-575) | binds |
| SNX12 (from UniProt Q9UMY4 1-162) | binds |
| SMARCA2 (from UniProt P51531 1-1590) | binds |
| MAPRE2 (from UniProt Q15555 1-327) | binds |
| GNA11 (from UniProt P29992 1-359) | binds |
| HNRNPAB (from UniProt Q99729 1-332) | binds |

The remaining lines, values ahead:

| binding | Molecule |
| --- | --- |
| binds | TSN (from UniProt Q15631 1-228) |
| binds | CPNE3 (from UniProt O75131 1-537) |
| binds | DNAJC19 (from UniProt Q96DA6 1-116) |
| binds | ATP6V1G1 (from UniProt O75348 1-118) |
| binds | ABCB7 (from UniProt O75027 23-752) |
| binds | RAB35 (from UniProt Q15286 1-201) |
| binds | RPS6KA3 (Ribosomal Protein S6 Kinase A3) (from UniProt P51812 1-740) |
| binds | MAP4 (Microtubule associated protein 4) (from UniProt P27816 1-1152) |
| binds | FUS (from UniProt P35637 1-526) |
| binds | TUBA1C (from UniProt Q9BQE3 1-449) |
| binds | G6PD (Glucose-6-phosphate dehydrogenase) (from UniProt P11413 1-515) |
| binds | ARF6 (from UniProt P62330 1-175) |
| binds | SFN (from UniProt P31947 1-248) |
| binds | MTMR2 (from UniProt Q13614 1-643) |
| binds | RNPEP (from UniProt Q9H4A4 1-650) |
| binds | HSPA1A (from UniProt P0DMV8 1-641) |
| binds | SMAD2 (from UniProt Q15796 1-467) |
| binds | RAB8A (from UniProt P61006 1-207) |
| binds | SRPK1 (from UniProt Q96SB4 1-655) |

What follows are molecules tested against HDAC6-APEX2-GFP (UniProt Q9UBN7) (assay: proximity labelling).

| binding | Molecule |
| --- | --- |
| binds | TIAL1 (protein, UniProt Q01085 1-375) MMEDDGQPRTLYVGNLSRDVTEVLILQLFSQIGPCKSCKMITEHTSNDPYCFVEFYEHRDAAAALAAMNGRKILGKEVKVNWATTPSSQKKDTSNHFHVFVGDLSPEITTEDIKSAFAPFGKISDARVVKDMATGKSKGYGFVSFYNKLDAENAIVHMGGQWLGGRQIRTNWATRKPPAPKSTQENNTKQLRFEDVVNQSSPKNCTVYCGGIASGLTDQLMRQTFSPFGQIMEIRVFPEKGYSFVRFSTHESAAHAIVSVNGTTIEGHVVKCYWGKESPDMTKNFQQVDYSQWGQWSQVYGNPQQYGQYMANGWQVPPYGVYGQPWNQQGFGVDQSPSAAWMGGFGAQPPQGQAPPPVIPPPNQAGYGMASYQTQ |
| binds | SRSF7 (protein, UniProt Q16629 1-238) MSRYGRYGGETKVYVGNLGTGAGKGELERAFSYYGPLRTVWIARNPPGFAFVEFEDPRDAEDAVRGLDGKVICGSRVRVELSTGMPRRSRFDRPPARRPFDPNDRCYECGEKGHYAYDCHRYSRRRRSRSRSRSHSRSRGRRYSRSRSRSRGRRSRSASPRRSRSISLRRSRSASLRRSRSGSIKGSRYFQSPSRSRSRSRSISRPRSSRSKSRSPSPKRSRSPSGSPRRSASPERMD |
| binds | SRSF11 (protein, UniProt Q05519 1-484) MSNTTVVPSTAGPGPSGGPGGGGGGGGGGGGTEVIQVTNVSPSASSEQMRTLFGFLGKIDELRLFPPDDSPLPVSSRVCFVKFHDPDSAVVAQHLTNTVFVDRALIVVPYAEGVIPDEAKALSLLAPANAVAGLLPGGGLLPTPNPLTQIGAVPLAALGAPTLDPALAALGLPGANLNSQSLAADQLLKLMSTVDPKLNHVAAGLVSPSLKSDTSSKEIEEAMKRVREAQSLISAAIEPDKKEEKRRHSRSRSRSRRRRTPSSSRHRRSRSRSRRRSHSKSRSRRRSKSPRRRRSHSRERGRRSRSTSKTRDKKKEDKEKKRSKTPPKSYSTARRSRSASRERRRRRSRSGTRSPKKPRSPKRKLSRSPSPRRHKKEKKKDKDKERSRDERERSTSKKKKSKDKEKDRERKSESDKDVKQVTRDYDEEEQGYDSEKEKKEEKKPIETGSPKTKECSVEKGTGDSLRESKVNGDDHHEEDMDMSD |

Target: VIM-APEX2-GFP (UniProt P08670)
Assay: proximity labelling
Remark: another data set of the same source

| binding | Molecule |
| --- | --- |
| binds | SMS (protein, UniProt P52788 1-366) MAAARHSTLDFMLGAKADGETILKGLQSIFQEQGMAESVHTWQDHGYLATYTNKNGSFANLRIYPHGLVLLDLQSYDGDAQGKEEIDSILNKVEERMKELSQDSTGRVKRLPPIVRGGAIDRYWPTADGRLVEYDIDEVVYDEDSPYQNIKILHSKQFGNILILSGDVNLAESDLAYTRAIMGSGKEDYTGKDVLILGGGDGGILCEIVKLKPKMVTMVEIDQMVIDGCKKYMRKTCGDVLDNLKGDCYQVLIEDCIPVLKRYAKEGREFDYVINDLTAVPISTSPEEDSTWEFLRLILDLSMKVLKQDGKYFTQGNCVNLTEALSLYEEQLGRLYCPVEFSKEIVCVPSYLELWVFYTVWKKAKP |
| binds | PYGL (protein, UniProt P06737 1-847) MAKPLTDQEKRRQISIRGIVGVENVAELKKSFNRHLHFTLVKDRNVATTRDYYFALAHTVRDHLVGRWIRTQQHYYDKCPKRVYYLSLEFYMGRTLQNTMINLGLQNACDEAIYQLGLDIEELEEIEEDAGLGNGGLGRLAACFLDSMATLGLAAYGYGIRYEYGIFNQKIRDGWQVEEADDWLRYGNPWEKSRPEFMLPVHFYGKVEHTNTGTKWIDTQVVLALPYDTPVPGYMNNTVNTMRLWSARAPNDFNLRDFNVGDYIQAVLDRNLAENISRVLYPNDNFFEGKELRLKQEYFVVAATLQDIIRRFKASKFGSTRGAGTVFDAFPDQVAIQLNDTHPALAIPELMRIFVDIEKLPWSKAWELTQKTFAYTNHTVLPEALERWPVDLVEKLLPRHLEIIYEINQKHLDRIVALFPKDVDRLRRMSLIEEEGSKRINMAHLCIVGSHAVNGVAKIHSDIVKTKVFKDFSELEPDKFQNKTNGITPRRWLLLCNPGLAELIAEKIGEDYVKDLSQLTKLHSFLGDDVFLRELAKVKQENKLKFSQFLETEYKVKINPSSMFDVQVKRIHEYKRQLLNCLHVITMYNRIKKDPKKLFVPRTVIIGGKAAPGYHMAKMIIKLITSVADVVNNDPMVGSKLKVIFLENYRVSLAEKVIPATDLSEQISTAGTEASGTGNMKFMLNGALTIGTMDGANVEMAEEAGEENLFIFGMRIDDVAALDKKGYEAKEYYEALPELKLVIDQIDNGFFSPKQPDLFKDIINMLFYHDRFKVFADYEAYVKCQDKVSQLYMNPKAWNTMVLKNIAASGKFSSDRTIKEYAQNIWNVEPSDLKISLSNESNKVNGN |
| binds | SCARB2 (protein, UniProt Q14108 1-478) MGRCCFYTAGTLSLLLLVTSVTLLVARVFQKAVDQSIEKKIVLRNGTEAFDSWEKPPLPVYTQFYFFNVTNPEEILRGETPRVEEVGPYTYRELRNKANIQFGDNGTTISAVSNKAYVFERDQSVGDPKIDLIRTLNIPVLTVIEWSQVHFLREIIEAMLKAYQQKLFVTHTVDELLWGYKDEILSLIHVFRPDISPYFGLFYEKNGTNDGDYVFLTGEDSYLNFTKIVEWNGKTSLDWWITDKCNMINGTDGDSFHPLITKDEVLYVFPSDFCRSVYITFSDYESVQGLPAFRYKVPAEILANTSDNAGFCIPEGNCLGSGVLNVSICKNGAPIIMSFPHFYQADERFVSAIEGMHPNQEDHETFVDINPLTGIILKAAKRFQINIYVKKLDDFVETGDIRTMVFPVMYLNESVHIDKETASRLKSMINTTLIITNIPYIIMALGVFFGLVFTWLACKGQGSMDEGTADERAPLIRT |
| binds | GTF3C4 (protein, UniProt Q9UKN8 1-822) MNTADQARVGPADDGPAPSGEEEGEGGGEAGGKEPAADAAPGPSAAFRLMVTRREPAVKLQYAVSGLEPLAWSEDHRVSVSTARSIAVLELICDVHNPGQDLVIHRTSVPAPLNSCLLKVGSKTEVAECKEKFAASKDPTVSQTFMLDRVFNPEGKALPPMRGFKYTSWSPMGCDANGRCLLAALTMDNRLTIQANLNRLQWVQLVDLTEIYGERLYETSYRLSKNEAPEGNLGDFAEFQRRHSMQTPVRMEWSGICTTQQVKHNNECRDVGSVLLAVLFENGNIAVWQFQLPFVGKESISSCNTIESGITSPSVLFWWEYEHNNRKMSGLIVGSAFGPIKILPVNLKAVKGYFTLRQPVILWKEMDQLPVHSIKCVPLYHPYQKCSCSLVVAARGSYVFWCLLLISKAGLNVHNSHVTGLHSLPIVSMTADKQNGTVYTCSSDGKVRQLIPIFTDVALKFEHQLIKLSDVFGSVRTHGIAVSPCGAYLAIITTEGMINGLHPVNKNYQVQFVTLKTFEEAAAQLLESSVQNLFKQVDLIDLVRWKILKDKHIPQFLQEALEKKIESSGVTYFWRFKLFLLRILYQSMQKTPSEALWKPTHEDSKILLVDSPGMGNADDEQQEEGTSSKQVVKQGLQERSKEGDVEEPTDDSLPTTGDAGGREPMEEKLLEIQGKIEAVEMHLTREHMKRVLGEVYLHTWITENTSIPTRGLCNFLMSDEEYDDRTARVLIGHISKKMNKQTFPEHCSLCKEILPFTDRKQAVCSNGHIWLRCFLTYQSCQSLIYRRCLLHDSIARHPAPEDPDWIKRLLQSPCPFCDSPVF |
